From paper PMC6152987 come the findings set out here.

Amino acid sequences for entries named in this document (tags omitted). A change or cut given only in a name is not applied to a line headed by its entry.
UniProt Q01371: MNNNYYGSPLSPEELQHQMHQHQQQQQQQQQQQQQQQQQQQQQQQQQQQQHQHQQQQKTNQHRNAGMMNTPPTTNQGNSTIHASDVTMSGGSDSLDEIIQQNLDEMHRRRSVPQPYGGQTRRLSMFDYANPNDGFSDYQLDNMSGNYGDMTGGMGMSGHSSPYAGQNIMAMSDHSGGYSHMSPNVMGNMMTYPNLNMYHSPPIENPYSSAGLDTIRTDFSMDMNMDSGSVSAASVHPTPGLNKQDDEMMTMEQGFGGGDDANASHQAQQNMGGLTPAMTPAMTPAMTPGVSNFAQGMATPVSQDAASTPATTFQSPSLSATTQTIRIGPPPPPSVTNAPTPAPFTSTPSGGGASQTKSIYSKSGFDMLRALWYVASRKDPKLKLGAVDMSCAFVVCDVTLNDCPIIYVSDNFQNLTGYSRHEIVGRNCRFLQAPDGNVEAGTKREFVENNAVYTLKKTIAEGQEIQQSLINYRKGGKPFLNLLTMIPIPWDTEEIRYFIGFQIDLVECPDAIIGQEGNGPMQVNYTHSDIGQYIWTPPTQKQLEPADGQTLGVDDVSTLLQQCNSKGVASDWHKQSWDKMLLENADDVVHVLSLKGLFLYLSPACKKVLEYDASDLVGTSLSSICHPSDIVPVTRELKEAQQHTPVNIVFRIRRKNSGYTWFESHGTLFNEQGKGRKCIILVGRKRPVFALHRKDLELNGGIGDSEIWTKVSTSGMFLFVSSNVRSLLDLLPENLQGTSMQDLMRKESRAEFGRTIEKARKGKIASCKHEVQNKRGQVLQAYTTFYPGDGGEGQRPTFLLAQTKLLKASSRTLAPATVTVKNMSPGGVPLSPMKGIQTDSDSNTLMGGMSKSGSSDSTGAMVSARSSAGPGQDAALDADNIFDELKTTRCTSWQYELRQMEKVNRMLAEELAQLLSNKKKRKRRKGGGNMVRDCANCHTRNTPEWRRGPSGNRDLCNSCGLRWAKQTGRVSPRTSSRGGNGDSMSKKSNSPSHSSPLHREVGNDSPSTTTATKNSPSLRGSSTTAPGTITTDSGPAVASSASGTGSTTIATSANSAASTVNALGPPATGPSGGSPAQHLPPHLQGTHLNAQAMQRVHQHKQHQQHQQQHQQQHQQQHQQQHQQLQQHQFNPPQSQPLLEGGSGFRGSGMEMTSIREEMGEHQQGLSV
UniProt U9W3H0: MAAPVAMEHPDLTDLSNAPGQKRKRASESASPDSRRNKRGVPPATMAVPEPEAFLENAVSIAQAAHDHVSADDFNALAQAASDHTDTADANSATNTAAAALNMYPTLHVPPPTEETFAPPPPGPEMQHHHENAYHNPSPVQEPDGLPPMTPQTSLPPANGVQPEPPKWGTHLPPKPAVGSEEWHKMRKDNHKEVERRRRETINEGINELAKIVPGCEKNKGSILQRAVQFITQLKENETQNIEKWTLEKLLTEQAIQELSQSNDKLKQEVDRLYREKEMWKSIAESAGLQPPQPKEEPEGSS

Test [1] concerns the target WHITE COLLAR 1 (WC-1) (Neurospora crassa) (UniProt Q01371). Briefly: co-IP; immunoprecipitation from N. crassa protein extracts with WC-1 antiserum or WC-2 antiserum; pre-immune serum as the negative control; 'in vivo'.
Test [2] has as its target T1, WHITE COLLAR 2 (WC-2) (Neurospora crassa) (UniProt P78714).
T1 sequence: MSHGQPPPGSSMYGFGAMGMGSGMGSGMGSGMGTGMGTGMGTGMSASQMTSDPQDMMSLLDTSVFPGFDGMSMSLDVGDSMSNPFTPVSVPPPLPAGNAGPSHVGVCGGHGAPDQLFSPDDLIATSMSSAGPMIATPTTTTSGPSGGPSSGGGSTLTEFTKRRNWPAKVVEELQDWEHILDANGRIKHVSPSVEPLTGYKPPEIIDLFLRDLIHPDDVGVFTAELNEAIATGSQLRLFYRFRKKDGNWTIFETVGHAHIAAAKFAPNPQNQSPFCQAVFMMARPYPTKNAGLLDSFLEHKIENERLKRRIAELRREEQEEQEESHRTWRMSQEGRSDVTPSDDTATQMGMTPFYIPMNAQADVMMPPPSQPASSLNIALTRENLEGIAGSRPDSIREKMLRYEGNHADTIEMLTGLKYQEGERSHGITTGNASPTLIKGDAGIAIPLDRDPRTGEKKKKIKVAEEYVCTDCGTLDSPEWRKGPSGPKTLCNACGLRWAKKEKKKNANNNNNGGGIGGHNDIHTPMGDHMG
The description is as above.

Results are given in words; binding and its absence hold for the method and conditions named. In cells and extracts the contact can be indirect. Binding can be weak; no strength is given.

As for “Centromere Binding Factor 1 (CBF-1) (from UniProt U9W3H0)”, the binding result in test [1] and in test [2] was “binds” in each case.
